Results are given in words; binding and its absence hold for the method and conditions named. Binding seen in cells or lysates may run through a third protein. Some entries that bind do so weakly or less than the wild type.
Biological target: neuronal nitric oxide synthase (nNOS) (rat (endogenous in rat brain)) (UniProt P29476)
Test: co-IP; rat brain lysate (TEEN, 1% Triton X-100), pre-cleared with protein G agarose, immunoprecipitated with monoclonal nNOS antibody or mouse IgG at 4°C for 2 h; washed with TEEN containing 0.1% Triton X-100; Western blotting for nNOS and NOS1AP isoforms

Sequences of proteins named here, by UniProt entry; tags and fusion partners are left off.
UniProt P29476: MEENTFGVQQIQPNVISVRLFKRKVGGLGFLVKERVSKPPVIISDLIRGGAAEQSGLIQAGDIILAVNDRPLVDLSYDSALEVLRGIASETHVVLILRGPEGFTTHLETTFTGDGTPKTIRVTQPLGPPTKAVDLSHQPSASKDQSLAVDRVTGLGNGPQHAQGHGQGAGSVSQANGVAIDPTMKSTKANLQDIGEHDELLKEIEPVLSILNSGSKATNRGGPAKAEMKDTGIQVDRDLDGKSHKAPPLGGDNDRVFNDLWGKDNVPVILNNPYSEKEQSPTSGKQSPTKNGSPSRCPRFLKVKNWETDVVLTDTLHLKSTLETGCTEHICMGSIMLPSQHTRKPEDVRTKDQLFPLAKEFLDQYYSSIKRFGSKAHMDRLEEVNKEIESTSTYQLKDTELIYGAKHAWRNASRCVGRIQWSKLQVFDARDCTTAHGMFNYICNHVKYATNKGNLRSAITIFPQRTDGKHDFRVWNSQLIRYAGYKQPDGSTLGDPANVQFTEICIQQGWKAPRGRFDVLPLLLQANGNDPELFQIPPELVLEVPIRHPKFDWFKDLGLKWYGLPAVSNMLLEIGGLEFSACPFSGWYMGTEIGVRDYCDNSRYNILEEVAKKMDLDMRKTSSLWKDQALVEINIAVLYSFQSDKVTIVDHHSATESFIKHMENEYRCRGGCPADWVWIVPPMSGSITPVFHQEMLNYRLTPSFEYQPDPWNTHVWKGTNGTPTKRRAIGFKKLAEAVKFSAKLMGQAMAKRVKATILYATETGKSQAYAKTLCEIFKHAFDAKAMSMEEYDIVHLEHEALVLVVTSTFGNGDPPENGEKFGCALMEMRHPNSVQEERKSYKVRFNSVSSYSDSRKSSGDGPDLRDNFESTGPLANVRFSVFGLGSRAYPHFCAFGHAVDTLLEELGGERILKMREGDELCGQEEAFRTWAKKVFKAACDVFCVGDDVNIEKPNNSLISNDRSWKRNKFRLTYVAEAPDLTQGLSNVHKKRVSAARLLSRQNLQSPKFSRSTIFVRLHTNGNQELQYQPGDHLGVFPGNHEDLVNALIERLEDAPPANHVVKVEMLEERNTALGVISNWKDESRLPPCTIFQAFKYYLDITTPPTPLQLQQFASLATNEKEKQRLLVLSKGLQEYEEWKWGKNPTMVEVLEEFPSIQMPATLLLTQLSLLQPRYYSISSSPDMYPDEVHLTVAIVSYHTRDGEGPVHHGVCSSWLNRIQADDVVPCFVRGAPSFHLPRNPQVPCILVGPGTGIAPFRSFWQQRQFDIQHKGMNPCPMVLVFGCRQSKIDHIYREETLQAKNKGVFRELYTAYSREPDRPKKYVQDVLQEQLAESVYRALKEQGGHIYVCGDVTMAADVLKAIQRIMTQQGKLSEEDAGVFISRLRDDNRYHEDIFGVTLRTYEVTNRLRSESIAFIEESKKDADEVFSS
UniProt O54960: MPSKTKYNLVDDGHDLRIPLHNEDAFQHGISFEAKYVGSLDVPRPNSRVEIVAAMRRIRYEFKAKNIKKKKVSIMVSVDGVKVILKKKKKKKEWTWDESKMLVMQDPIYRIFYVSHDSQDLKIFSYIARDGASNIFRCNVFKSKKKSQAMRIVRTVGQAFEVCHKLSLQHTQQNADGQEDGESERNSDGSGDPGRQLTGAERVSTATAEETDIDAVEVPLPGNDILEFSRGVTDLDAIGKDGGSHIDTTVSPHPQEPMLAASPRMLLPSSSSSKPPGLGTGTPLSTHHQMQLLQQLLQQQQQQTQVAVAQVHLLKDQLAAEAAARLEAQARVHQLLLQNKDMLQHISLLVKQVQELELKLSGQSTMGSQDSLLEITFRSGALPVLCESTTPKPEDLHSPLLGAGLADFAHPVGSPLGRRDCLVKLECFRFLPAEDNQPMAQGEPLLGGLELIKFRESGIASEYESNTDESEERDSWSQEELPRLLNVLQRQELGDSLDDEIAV

Substance: Nitric Oxide Synthase 1 Adaptor Protein, long isoform (NOS1AP-L) (from UniProt O54960 1-503)
- binding: binds
